Results: paper PMC11280224
Results are given in words; binding and its absence hold for the method and conditions named. In cells and extracts the contact can be indirect. For some assays here: Where a sequence is shown, tags or fusion partners need not be part of it.

Chains of the proteins cited; added tags and fusions are not shown.
UniProt Q7Z434: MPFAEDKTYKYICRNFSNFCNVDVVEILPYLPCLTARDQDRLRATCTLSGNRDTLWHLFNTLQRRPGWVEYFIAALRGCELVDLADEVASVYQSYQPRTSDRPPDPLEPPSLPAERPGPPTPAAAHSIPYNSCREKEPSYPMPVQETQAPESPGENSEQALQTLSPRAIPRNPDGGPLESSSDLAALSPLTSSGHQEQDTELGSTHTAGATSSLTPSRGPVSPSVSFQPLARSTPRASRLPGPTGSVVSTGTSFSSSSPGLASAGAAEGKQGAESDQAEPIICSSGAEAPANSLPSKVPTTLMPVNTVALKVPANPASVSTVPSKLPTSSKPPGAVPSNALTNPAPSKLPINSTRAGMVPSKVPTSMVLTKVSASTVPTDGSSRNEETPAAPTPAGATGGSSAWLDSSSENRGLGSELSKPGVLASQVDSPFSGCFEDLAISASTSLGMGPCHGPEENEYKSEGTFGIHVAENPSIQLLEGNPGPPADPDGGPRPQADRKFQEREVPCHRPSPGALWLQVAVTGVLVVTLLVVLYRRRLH

Assays:
Assay in all cases: co-IP; HEK293T cells transfected with a Flag-tagged protein; lysate immunoprecipitated with anti-Flag agarose beads; eluate blotted with anti-USP26 antibody; precipitates washed three times with lysis buffer containing 500 mM NaCl
Flag-IRF3 = target: T1, Flag-IRF3 (UniProt Q14653)
T1 sequence: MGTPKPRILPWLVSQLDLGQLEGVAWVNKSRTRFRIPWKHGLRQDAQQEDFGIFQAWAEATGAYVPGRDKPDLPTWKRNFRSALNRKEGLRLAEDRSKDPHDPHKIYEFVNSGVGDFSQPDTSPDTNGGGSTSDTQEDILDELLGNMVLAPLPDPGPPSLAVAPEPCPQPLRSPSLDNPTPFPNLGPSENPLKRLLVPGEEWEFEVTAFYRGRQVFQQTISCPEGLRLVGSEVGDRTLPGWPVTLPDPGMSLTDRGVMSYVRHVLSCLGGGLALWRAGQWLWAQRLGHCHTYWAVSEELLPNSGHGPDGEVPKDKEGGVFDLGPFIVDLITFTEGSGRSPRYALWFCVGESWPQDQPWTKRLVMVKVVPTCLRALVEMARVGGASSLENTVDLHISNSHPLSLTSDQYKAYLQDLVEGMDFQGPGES

Flag-MAVS = Flag-MAVS (UniProt Q7Z434)
Flag-MDA5 = target: T2, Flag-MDA5 (UniProt Q9BYX4)
T2 sequence: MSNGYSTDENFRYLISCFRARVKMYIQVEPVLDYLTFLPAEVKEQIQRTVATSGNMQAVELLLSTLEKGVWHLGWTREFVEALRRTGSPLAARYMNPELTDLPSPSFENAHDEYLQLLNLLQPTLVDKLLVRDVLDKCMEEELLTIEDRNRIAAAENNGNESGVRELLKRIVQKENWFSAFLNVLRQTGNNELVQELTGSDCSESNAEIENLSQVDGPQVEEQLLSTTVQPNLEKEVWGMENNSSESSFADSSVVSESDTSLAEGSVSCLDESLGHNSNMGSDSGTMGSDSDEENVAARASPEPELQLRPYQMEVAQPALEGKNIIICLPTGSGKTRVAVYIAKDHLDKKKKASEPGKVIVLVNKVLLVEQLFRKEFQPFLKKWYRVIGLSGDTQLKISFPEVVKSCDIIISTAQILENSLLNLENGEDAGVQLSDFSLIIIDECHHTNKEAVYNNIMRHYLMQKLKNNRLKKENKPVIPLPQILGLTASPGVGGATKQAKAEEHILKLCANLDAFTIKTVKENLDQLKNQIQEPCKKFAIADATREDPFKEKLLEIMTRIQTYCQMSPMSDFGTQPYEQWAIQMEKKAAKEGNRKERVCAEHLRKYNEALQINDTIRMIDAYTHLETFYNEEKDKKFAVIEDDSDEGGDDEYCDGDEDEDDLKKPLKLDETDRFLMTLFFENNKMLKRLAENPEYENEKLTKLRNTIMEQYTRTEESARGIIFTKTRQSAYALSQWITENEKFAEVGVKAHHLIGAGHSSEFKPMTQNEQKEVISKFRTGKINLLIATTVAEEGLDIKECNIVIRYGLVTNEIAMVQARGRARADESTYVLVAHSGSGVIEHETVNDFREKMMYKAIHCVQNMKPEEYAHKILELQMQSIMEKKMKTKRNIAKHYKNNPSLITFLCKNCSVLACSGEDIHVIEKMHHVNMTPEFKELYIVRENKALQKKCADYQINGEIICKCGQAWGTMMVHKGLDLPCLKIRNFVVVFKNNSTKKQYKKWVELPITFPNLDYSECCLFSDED

Flag-RIG-I = target: T3, Flag-RIG-I (UniProt O95786)
T3 sequence: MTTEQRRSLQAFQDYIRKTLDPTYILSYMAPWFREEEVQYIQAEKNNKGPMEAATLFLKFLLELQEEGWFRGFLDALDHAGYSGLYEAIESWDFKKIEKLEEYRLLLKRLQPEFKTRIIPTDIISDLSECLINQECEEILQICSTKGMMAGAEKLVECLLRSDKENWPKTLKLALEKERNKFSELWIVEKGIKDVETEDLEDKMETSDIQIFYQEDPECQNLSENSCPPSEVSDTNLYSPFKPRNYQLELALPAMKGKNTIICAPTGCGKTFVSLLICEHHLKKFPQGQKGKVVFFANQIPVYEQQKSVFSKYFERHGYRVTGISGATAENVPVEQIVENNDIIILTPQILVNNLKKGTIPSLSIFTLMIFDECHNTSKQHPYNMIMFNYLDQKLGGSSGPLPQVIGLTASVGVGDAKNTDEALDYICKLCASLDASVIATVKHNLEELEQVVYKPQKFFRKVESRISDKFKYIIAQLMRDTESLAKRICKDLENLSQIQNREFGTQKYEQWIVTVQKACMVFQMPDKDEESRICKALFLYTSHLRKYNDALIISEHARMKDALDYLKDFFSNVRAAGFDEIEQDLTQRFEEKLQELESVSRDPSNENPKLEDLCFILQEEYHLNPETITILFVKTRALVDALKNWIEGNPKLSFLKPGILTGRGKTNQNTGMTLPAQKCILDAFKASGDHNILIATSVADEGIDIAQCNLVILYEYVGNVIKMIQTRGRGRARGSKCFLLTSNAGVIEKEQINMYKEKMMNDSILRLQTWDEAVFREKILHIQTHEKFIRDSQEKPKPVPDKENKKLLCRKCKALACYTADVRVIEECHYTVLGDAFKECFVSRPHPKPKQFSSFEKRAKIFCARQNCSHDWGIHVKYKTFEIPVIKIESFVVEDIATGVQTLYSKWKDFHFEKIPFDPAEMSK

Flag-TBK1 = target: T4, Flag-TBK1 (UniProt Q9UHD2)
T4 sequence: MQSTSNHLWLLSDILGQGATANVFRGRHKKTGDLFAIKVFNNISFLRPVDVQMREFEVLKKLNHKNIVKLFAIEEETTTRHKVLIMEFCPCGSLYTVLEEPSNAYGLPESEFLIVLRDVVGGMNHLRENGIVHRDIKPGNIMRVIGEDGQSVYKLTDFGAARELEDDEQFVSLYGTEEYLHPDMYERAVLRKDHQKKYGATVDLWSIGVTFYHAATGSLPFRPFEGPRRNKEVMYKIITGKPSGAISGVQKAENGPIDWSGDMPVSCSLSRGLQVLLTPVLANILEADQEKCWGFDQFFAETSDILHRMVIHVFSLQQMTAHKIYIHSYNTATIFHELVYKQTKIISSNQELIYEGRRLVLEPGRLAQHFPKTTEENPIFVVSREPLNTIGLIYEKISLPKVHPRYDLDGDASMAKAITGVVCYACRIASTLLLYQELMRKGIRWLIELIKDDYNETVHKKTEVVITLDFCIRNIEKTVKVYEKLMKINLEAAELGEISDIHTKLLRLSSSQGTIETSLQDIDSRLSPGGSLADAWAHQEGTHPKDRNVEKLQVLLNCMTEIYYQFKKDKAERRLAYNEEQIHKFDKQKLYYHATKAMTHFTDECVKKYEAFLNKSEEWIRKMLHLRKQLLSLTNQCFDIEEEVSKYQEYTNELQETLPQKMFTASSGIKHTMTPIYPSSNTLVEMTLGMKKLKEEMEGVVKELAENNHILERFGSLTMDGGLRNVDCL

Measured: binding

B1: Ubiquitin-specific protease 26 (USP26) (enzyme, UniProt Q9BXU7 1-913)
chain: MAALFLRGFVQIGNCKTGISKSKEAFIEAVERKKKDRLVLYFKSGKYSTFRLSDNIQNVVLKSYRGNQNHLHLTLQNNNGLFIEGLSSTDAEQLKIFLDRVHQNEVQPPVRPGKGGSVFSSTTQKEINKTSFHKVDEKSSSKSFEIAKGSGTGVLQRMPLLTSKLTLTCGELSENQHKKRKRMLSSSSEMNEEFLKENNSVEYKKSKADCSRCVSYNREKQLKLKELEENKKLECESSCIMNATGNPYLDDIGLLQALTEKMVLVFLLQQGYSDGYTKWDKLKLFFELFPEKICHGLPNLGNTCYMNAVLQSLLSIPSFADDLLNQSFPWGKIPLNALTMCLARLLFFKDTYNIEIKEMLLLNLKKAISAAAEIFHGNAQNDAHEFLAHCLDQLKDNMEKLNTIWKPKSEFGEDNFPKQVFADDPDTSGFSCPVITNFELELLHSIACKACGQVILKTELNNYLSINLPQRIKAHPSSIQSTFDLFFGAEELEYKCAKCEHKTSVGVHSFSRLPRILIVHLKRYSLNEFCALKKNDQEVIISKYLKVSSHCNEGTRPPLPLSEDGEITDFQLLKVIRKMTSGNISVSWPATKESKDILAPHIGSDKESEQKKGQTVFKGASRRQQQKYLGKNSKPNELESVYSGDRAFIEKEPLAHLMTYLEDTSLCQFHKAGGKPASSPGTPLSKVDFQTVPENPKRKKYVKTSKFVAFDRIINPTKDLYEDKNIRIPERFQKVSEQTQQCDGMRICEQAPQQALPQSFPKPGTQGHTKNLLRPTKLNLQKSNRNSLLALGSNKNPRNKDILDKIKSKAKETKRNDDKGDHTYRLISVVSHLGKTLKSGHYICDAYDFEKQIWFTYDDMRVLGIQEAQMQEDRRCTGYIFFYMHNEIFEEMLKREENAQLNSKEVEETLQKE
no binding: all assays above
